From publication PMC9181926, “Synthesis and Antiproliferative Activity of Novel Dehydroabietic Acid-Chalcone Hybrids” (Molecules, 2022) come the findings set out here.

Assay type in all cases: cell-based, human
One series deals with MDA-MB-231 cells. The experiment in a line: Antiproliferation assay (cell counting, 48 h) in MDA-MB-231 breast cancer cells. Conditions: FB IC50 relative to MDA-MB-231 IC50. The source says:
(§1) Regarding the different characteristics of the used breast cancer cell lines, we can notice that MDA-MB-231 and Hs578T are triple negative.
(§2) Primary skin normal fibroblasts were kindly provided by Prof. Emer.

The test system of another series is MCF-7 cells. The experiment in a line: Antiproliferation assay (cell counting, 48 h) in MCF-7 breast cancer cells. The note with it: FB IC50 relative to MCF-7 IC50.
Text: as §1, §2

A further series concerns Hs578T cells. The experiment in a line: Antiproliferation assay (cell counting, 48 h) in Hs578T breast cancer cells. The note with it: FB IC50 relative to Hs578T IC50.
Text: as §1, §2

On to “(1R,4aS)-methyl 7-((E)-3-(1H-pyrrol-3-yl)acryloyl)-6-hydroxy-1,4a-dimethyl-1,2,3,4, 4a,9,10,10a-octahydrophenanthrene-1-carboxylate [Compound 43]”, for which the “Selectivity Index for MDA-MB-231” value in the series with MDA-MB-231 cells amounted to 1.13. The “Selectivity Index for MCF-7” value with MCF-7 cells was determined as 7.70. For the same substance, the “Selectivity Index for Hs578T” value with Hs578T cells is on record as 1.99.

As to “(1R,4aS)-methyl 7-((E)-3-(2-chloroquinolin-4-yl)acryloyl)-6-hydroxy-1,4a-dimethyl-1,2,3,4, 4a,9,10,10a-octahydrophenanthrene-1-carboxylate [Compound 41]”, the “Selectivity Index for MDA-MB-231” value in the series on MDA-MB-231 cells was 1.12. Further, the “Selectivity Index for MCF-7” value in the series with MCF-7 cells was found to be 1.99. For the same substance, in the series on Hs578T cells, the “Selectivity Index for Hs578T” value was found to be 0.77.
